Experimental data as given in US6777540 (dated 2004).
No constants are given. Whether binding was seen depends on the method and setting. Some binding calls cover weakened binding; strength is not graded here.

Protein sequences, listed by entry. Tags and fused reporters are not part of them. Lines headed by an entry give the natural chain unless they say otherwise; changes in a name come on top. Residues count along the entry.
UniProt P48023, residues 130-281: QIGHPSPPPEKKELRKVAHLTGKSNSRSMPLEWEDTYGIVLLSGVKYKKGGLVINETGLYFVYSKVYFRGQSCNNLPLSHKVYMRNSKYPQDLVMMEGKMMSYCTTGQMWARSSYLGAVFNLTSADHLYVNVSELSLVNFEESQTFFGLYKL

How the values were obtained:
[1] = molecular target: soluble Fas ligand molecule (human Fas ligand released into the supernatant of COS cells transfected with human Fas ligand-BCMGSNeo, purified on NOK1 antibody) (human) (UniProt P48023); experiment: ELISA, soluble Fas ligand coated on plate, purified antibody, anti-human Ig detection
[2] = molecular target: native Fas ligand (FLAG-tagged extracellular domain of human Fas ligand without amino acid substitution, secreted by COS cells) (human) (UniProt P48023); experiment: ELISA, native Fas ligand supernatant coated on plate, twofold dilutions of antibody from 3.57 ug/ml
[3] = molecular target: native Fas ligand (FLAG-tagged extracellular domain of human Fas ligand without amino acid substitution, secreted by COS cells) (human) (UniProt P48023); experiment: ELISA, native Fas ligand supernatant coated on plate, twofold dilutions of antibody from 1.86 ug/ml
[4] = molecular target: native Fas ligand (FLAG-tagged extracellular domain of human Fas ligand without amino acid substitution, secreted by COS cells) (human) (UniProt P48023); experiment: ELISA, native Fas ligand supernatant coated on plate, twofold dilutions of antibody from 3.35 ug/ml
[5] = molecular target: soluble Fas ligand molecule (human Fas ligand released into the supernatant of COS cells transfected with human Fas ligand-BCMGSNeo, purified on NOK1 antibody) (human) (UniProt P48023); experiment: ELISA, soluble Fas ligand coated at 50 ng/ml, detection with HRP anti-human Ig-Ckappa
[6] = molecular target: native Fas ligand (FLAG-tagged extracellular domain of human Fas ligand without amino acid substitution, secreted by COS cells) (human) (UniProt P48023); experiment: ELISA, native Fas ligand supernatant coated on plate, twofold dilutions of antibody from 50 ug/ml

B1: RNOK201 (humanized NOK2 antibody, RNOK2VHver11 with RNOK2VLver1) (antibody, V domains shown)
VH: QVQLVQSGAEVKKPGASVKVSCKASGYTFTNYWIGWVKQAPGQGLEWIGYLYPGGLYTNYNEKFKGKATMTADTSTNTAYMELSSLRSEDTAVYYCARYRDYDYAMDYWGQGTLVTVSS
VL: DVVMTQTPSSLSASVGDRASISCKSTKSLLNSDGFTYLGWCQQKPGQSPQLLIYLVSNRFSGVPDRFSGSGSGTDFTLKISSLQPEDIATYYCFQSNYLPLTFGQGTKVEIKR
In the case of B1, the binding [1] is reported as “binds” and the binding [2] is reported as “binds”.

B2: RNOK202 (humanized NOK2 antibody, RNOK2VHver11 with RNOK2VLver21) (antibody, V domains shown)
VH: QVQLVQSGAEVKKPGASVKVSCKASGYTFTNYWIGWVKQAPGQGLEWIGYLYPGGLYTNYNEKFKGKATMTADTSTNTAYMELSSLRSEDTAVYYCARYRDYDYAMDYWGQGTLVTVSS
VL: DVVMTQTPLSLPVTPGEPASISCKSTKSLLNSDGFTYLGWCLQKPGQSPQLLIYLVSNRFSGVPDRFSGSGSGTDFTLKISRVEAEDVGVYYCFQSNYLPLTFGQGTKLEIKR
B2 was tested, and the binding [1] was “binds” and the binding [3] was “binds”.

B3: RNOK203 (humanized NOK2 antibody, RNOK2VHver11 with RNOK2VLver22) (antibody, V domains shown)
VH: QVQLVQSGAEVKKPGASVKVSCKASGYTFTNYWIGWVKQAPGQGLEWIGYLYPGGLYTNYNEKFKGKATMTADTSTNTAYMELSSLRSEDTAVYYCARYRDYDYAMDYWGQGTLVTVSS
VL: DVVMTQTPLSLPVTLGQPASISCKSTKSLLNSDGFTYLGWCLQKPGQSPQLLIYLVSNRFSGVPDRFSGSGSGTDFTLKISRVEAEDVGVYYCFQSNYLPLTFGQGTKLEIKR
In the case of B3, the binding [1] is reported as “binds” and the binding [4] is reported as “binds”.

B4: chimeric NOK2 antibody (CNOK2) (antibody, V domains shown)
VH: QVHLQQSGAELVRPGTSVKMSCKAAGYTFTNYWIGWVKQRPGHGLEWIGYLYPGGLYTNYNEKFKGKATLTADTSSSTAYMQLSSLTSEDSAIYYCARYRDYDYAMDYWGQGTSVTVSS
VL: DVVLTQTPLSLPVNIGDQASISCKSTKSLLNSDGFTYLGWCLQKPGQSPQLLIYLVSNRFSGVPDRFSGSGSGTDFTLKISRVEAEDLGVYYCFQSNYLPLTFGSGTKLEIKR
For B4, the binding [5] was “binds”.

B5: NOK2 antibody (mouse anti-Fas ligand monoclonal antibody of hybridoma NOK2, FERM BP-5045) (antibody, V domains shown)
VH: QVHLQQSGAELVRPGTSVKMSCKAAGYTFTNYWIGWVKQRPGHGLEWIGYLYPGGLYTNYNEKFKGKATLTADTSSSTAYMQLSSLTSEDSAIYYCARYRDYDYAMDYWGQGTSVTVSS
VL: DVVLTQTPLSLPVNIGDQASISCKSTKSLLNSDGFTYLGWCLQKPGQSPQLLIYLVSNRFSGVPDRFSGSGSGTDFTLKISRVEAEDLGVYYCFQSNYLPLTFGSGTKLEIKR
notes: Mouse IgG, purified on protein G; kappa light chain; Those are derived from the cloned PCR product and may hold leader or primer residues; also called mouse NOK2 immunoglobulin; NOK2 immunoglobulin
B5 was tested, and the binding [6] was “binds”.
